Measured values as given in doi:10.1101/2023.08.10.552743.
Results are given in words; binding and its absence hold for the method and conditions named. For some of these results: Binding seen in cells or lysates may run through a third protein. Some results given as binding are weak or reduced against the parent protein; the word gives no strength. Sequences can lack the tags named with a protein.

Protein sequences, listed by entry. Tags and fused reporters are not part of them.
UniProt Q9NV88, whole entry: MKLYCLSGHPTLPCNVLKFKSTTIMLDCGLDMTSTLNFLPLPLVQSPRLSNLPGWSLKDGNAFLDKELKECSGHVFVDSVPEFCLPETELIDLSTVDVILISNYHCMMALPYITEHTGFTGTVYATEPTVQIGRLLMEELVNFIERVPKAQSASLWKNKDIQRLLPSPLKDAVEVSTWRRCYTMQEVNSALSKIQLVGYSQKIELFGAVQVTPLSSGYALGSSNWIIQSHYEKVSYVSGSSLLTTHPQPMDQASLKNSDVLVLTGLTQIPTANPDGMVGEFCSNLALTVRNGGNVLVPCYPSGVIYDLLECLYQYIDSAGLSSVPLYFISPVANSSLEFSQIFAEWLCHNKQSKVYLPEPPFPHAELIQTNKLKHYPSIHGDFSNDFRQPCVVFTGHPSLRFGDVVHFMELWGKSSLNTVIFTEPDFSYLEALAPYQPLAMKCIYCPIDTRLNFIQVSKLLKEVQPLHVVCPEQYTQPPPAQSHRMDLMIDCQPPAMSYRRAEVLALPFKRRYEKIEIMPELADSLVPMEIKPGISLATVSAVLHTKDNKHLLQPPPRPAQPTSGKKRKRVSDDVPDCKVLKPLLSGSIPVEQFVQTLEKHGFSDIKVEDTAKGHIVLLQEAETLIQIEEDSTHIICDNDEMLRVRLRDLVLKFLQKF
UniProt Q5TA45, whole entry: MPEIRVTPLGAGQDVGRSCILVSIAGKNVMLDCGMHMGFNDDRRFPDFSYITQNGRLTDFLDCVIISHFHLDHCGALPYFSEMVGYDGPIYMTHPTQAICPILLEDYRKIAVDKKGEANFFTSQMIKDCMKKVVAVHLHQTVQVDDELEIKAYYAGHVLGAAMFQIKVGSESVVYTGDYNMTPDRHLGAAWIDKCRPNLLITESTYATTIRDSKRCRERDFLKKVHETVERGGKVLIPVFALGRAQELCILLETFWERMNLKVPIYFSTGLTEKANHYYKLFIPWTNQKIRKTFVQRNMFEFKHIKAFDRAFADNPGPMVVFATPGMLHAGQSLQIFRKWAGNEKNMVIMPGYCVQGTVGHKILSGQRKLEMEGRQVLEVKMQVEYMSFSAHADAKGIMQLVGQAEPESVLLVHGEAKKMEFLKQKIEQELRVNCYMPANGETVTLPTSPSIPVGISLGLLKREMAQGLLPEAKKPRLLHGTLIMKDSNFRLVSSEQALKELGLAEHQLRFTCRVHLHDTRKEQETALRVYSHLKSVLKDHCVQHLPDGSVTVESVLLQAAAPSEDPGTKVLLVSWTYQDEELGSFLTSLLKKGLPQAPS

Columns and labels:
[1] = biological target: T1, Flag-BRAT1 P309_Q310del (human) (UniProt Q6PJG6); experiment: co-IP
T1 sequence: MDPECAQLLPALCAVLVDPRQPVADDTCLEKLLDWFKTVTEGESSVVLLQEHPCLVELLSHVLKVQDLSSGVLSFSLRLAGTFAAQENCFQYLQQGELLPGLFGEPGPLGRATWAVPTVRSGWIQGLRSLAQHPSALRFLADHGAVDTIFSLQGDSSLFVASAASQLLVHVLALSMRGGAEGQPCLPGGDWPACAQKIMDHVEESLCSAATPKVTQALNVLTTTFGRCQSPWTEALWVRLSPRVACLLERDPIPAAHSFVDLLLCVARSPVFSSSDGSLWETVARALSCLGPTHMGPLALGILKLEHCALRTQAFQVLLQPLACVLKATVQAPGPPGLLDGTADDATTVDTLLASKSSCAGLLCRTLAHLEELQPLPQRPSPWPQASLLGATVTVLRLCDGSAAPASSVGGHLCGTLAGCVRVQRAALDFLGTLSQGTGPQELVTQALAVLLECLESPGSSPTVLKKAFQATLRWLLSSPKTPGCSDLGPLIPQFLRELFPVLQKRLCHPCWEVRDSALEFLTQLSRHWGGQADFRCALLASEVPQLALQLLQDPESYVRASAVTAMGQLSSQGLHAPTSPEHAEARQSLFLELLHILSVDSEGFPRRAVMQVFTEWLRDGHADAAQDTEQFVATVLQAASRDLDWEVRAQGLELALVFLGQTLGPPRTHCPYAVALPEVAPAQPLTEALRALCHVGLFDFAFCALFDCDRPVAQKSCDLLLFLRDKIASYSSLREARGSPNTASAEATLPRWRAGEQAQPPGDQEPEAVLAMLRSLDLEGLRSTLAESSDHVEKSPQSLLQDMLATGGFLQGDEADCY

[2] = biological target: T2, Flag-BRAT1 wild type (human) (UniProt Q6PJG6); experiment: SEC
T2 sequence: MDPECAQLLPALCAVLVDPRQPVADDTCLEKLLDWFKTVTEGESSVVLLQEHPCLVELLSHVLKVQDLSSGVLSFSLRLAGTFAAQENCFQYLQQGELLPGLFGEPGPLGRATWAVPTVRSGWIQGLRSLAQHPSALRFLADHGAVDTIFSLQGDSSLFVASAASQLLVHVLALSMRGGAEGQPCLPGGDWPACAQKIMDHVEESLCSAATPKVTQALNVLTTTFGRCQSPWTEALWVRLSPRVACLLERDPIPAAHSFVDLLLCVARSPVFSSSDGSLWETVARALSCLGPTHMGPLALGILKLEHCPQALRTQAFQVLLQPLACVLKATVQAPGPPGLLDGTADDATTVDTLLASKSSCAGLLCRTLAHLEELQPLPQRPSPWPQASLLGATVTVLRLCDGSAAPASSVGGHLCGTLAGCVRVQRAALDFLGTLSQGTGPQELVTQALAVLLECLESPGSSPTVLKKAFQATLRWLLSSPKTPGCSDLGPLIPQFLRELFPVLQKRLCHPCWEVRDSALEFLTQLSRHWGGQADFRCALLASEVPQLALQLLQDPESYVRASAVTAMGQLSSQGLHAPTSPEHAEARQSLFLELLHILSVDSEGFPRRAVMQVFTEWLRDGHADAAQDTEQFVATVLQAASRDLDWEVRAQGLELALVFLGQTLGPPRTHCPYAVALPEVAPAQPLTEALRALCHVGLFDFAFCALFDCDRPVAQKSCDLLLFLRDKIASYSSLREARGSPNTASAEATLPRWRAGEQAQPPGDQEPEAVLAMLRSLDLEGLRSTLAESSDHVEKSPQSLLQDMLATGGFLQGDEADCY

“INTS9 (endogenous, HEK293T) (from UniProt Q9NV88 1-658)” was tested, and the binding [1] was “binds” and the binding [2] was “binds”.
For “INTS11 (endogenous, HEK293T) (from UniProt Q5TA45 1-600)”, the binding [1] was “binds” and the binding [2] was “binds”.
